The values below come from publication PMC12159841.

This experiment has as its target T1, Tissue kallikrein-related peptidase 8 (KLK8) (UniProt Q61955).
T1 sequence: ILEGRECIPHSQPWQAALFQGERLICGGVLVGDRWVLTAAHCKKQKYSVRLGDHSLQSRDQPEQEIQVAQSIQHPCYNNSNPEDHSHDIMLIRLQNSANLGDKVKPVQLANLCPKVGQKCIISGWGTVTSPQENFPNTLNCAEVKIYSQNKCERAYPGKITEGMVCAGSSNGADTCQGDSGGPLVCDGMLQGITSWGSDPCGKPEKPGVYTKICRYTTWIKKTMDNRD
The experiment is described as follows: affinity purification with mass spectrometry; proteins from Ad-KLK8-treated BV2 cells immunoprecipitated with anti-KLK8 antibody, SDS-PAGE, in-gel trypsin digestion, UPLC-MS/MS; searched against the Rattus database (UniProtKB/Swiss-Prot).

Results are given in words; binding and its absence hold for the method and conditions named. In cells and extracts the contact can be indirect. A yes stands for co-enrichment or nearness to the bait. Other partners may have been found.

B1: CD44 (receptor, UniProt P15379 23-778)
chain: QIDLNVTCRYAGVFHVEKNGRYSISRTEAADLCQAFNSTLPTMDQMKLALSKGFETCRYGFIEGNVVIPRIHPNAICAANHTGVYILVTSNTSHYDTYCFNASAPPEEDCTSVTDLPNSFDGPVTITIVNRDGTRYSKKGEYRTHQEDIDASNIIDDDVSSGSTIEKSTPEGYILHTYLPTEQPTGDQDDSFFIRSTLATIASTVHSKSHAAAQKQNNWIWSWFGNSQSTTQTQEPTTSATTALMTTPETPPKRQEAQNWFSWLFQPSESKSHLHTTTKMPGTESNTNPTGWEPNEENEDETDTYPSFSGSGIDDDEDFISSTIATTPRVSARTEDNQDWTQWKPNHSNPEVLLQTTTRMADIDRISTSAHGENWTPEPQPPFNNHEYQDEEETPHATSTTPNSTAEAAATQQETWFQNGWQGKNPPTPSEDSHVTEGTTASAHNNHPSQRITTQSQEDVSWTDFFDPISHPMGQGHQTESKDTDSSHSTTLQPTAAPNTHLVEDLNRTGPLSVTTPQSHSQNFSTLHGEPEEDENYPTTSILPSSTKSSAKDARRGGSLPTDTTTSVEGYTFQYPDTMENGTLFPVTPAKTEVFGETEVTLATDSNVNVDGSLPGDRDSSKDSRGSSRTVTHGSELAGHSSANQDSGVTTTSGPMRRPQIPEWLIILASLLALALILAVCIAVNSRRRCGQKKKLVINGGNGTVEDRKPSELNGEASKSQEMVHLVNKEPSETPDQCMTADETRNLQSVDMKIGV
Take B1: the binding result is “binds”.
